Assay results reported in paper PMC7049810.
Results are given in words; binding and its absence hold for the method and conditions named.

Protein sequences, listed by entry. Tags and fused reporters are not part of them. Residues count along the entry.
UniProt P0AFB1, residues 20-294: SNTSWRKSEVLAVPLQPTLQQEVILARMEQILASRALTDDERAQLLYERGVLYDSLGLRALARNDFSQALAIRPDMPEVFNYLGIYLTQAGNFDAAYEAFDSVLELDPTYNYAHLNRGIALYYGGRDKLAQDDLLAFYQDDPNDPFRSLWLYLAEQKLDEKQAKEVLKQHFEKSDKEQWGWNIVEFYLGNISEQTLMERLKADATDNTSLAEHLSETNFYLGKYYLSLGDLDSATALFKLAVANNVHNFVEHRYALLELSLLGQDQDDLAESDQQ

Columns and labels:
[1] = target: NlpI, soluble version lacking its membrane anchor (Escherichia coli) (UniProt P0AFB1); assay: MST; titration: NT647-labelled protein against a two-fold serial dilution (16 steps) of unlabelled ligand; 25 mM HEPES/NaOH, 150 mM NaCl, 0.05% Triton X-100, pH 7.5; Monolith NT.115; apparent constants; for NlpI with itself: dimer to monomers; both purified
[2] = target: NlpI, soluble version lacking its membrane anchor (Escherichia coli) (UniProt P0AFB1); assay: pull-down; Ni2+-NTA agarose beads; His-tagged protein with untagged or native ligand, overnight at 4°C; 10 mM HEPES/NaOH, 10 mM MgCl2, 150 mM NaCl, 0.05% Triton X-100, pH 7.5; washes with 30 mM imidazole; SDS-PAGE; both purified

binding [1] | binding [2] | Binder
no binding (tested: 30 μM) |  | LpoA, purified (protein, UniProt P45464 27-678, where used as the labelled protein in MST: NT647 RED-Maleimide dye on cysteines) CGTHTPDQSTAYMQGTAQADSAFYLQQMQQSSDDTRINWQLLAIRALVKEGKTGQAVELFNQLPQELNDAQRREKTLLAVEIKLAQKDFAGAQNLLAKITPADLEQNQQARYWQAKIDASQGRPSIDLLRALIAQEPLLGAKEKQQNIDATWQALSSMTQEQANTLVINADENILQGWLDLQRVWFDNRNDPDMMKAGIADWQKRYPNNPGAKMLPTQLVNVKAFKPASTNKIALLLPLNGQAAVFGRTIQQGFEAAKNIGTQPVAAQVAAAPAADVAEQPQPQTVDGVASPAQASVSDLTGEQPAAQPVPVSAPATSTAAVSAPANPSAELKIYDTSSQPLSQILSQVQQDGASIVVGPLLKNNVEELLKSNTPLNVLALNQPENIENRVNICYFALSPEDEARDAARHIRDQGKQAPLVLIPRSSLGDRVANAFAQEWQKLGGGTVLQQKFGSTSELRAGVNGGSGIALTGSPITLRATTDSGMTTNNPTLQTTPTDDQFTNNGGRVDAVYIVATPGEIAFIKPMIAMRNGSQSGATLYASSRSAQGTAGPDFRLEMEGLQYSEIPMLAGGNLPLMQQALSAVNNDYSLARMYAMGVDAWSLANHFSQMRQVQGFEINGNTGSLTANPDCVINRNLSWLQYQQGQVVPVS
 | no binding | lytic transglycosylase Slt (enzyme, UniProt P0AGC3 28-645) DSLDEQRSRYAQIKQAWDNRQMDVVEQMMPGLKDYPLYPYLEYRQITDDLMNQPAVTVTNFVRANPTLPPARTLQSRFVNELARREDWRGLLAFSPEKPGTTEAQCNYYYAKWNTGQSEEAWQGAKELWLTGKSQPNACDKLFSVWRASGKQDPLAYLERIRLAMKAGNTGLVTVLAGQMPADYQTIASAIISLANNPNTVLTFARTTGATDFTRQMAAVAFASVARQDAENARLMIPSLAQAQQLNEDQIQELRDIVAWRLMGNDVTDEQAKWRDDAIMRSQSTSLIERRVRMALGTGDRRGLNTWLARLPMEAKEKDEWRYWQADLLLERGREAEAKEILHQLMQQRGFYPMVAAQRIGEEYELKIDKAPQNVDSALTQGPEMARVRELMYWNLDNTARSEWANLVKSKSKTEQAQLARYAFNNQWWDLSVQATIAGKLWDHLEERFPLAYNDLFKRYTSGKEIPQSYAMAIARQESAWNPKVKSPVGASGLMQIMPGTATHTVKMFSIPGYSSPGQLLDPETNINIGTSYLQYVYQQFGNNRIFSSAAYNAGPGRVRTWLGNSAGRIDAVAFVESIPFSETRGYVKNVLAYDAYYRYFMGDKPTLMSATEWGRRY
 | no binding | carboxypeptidase PBP5 (enzyme, UniProt P0AEB2 30-403) DDLNIKTMIPGVPQIDAESYILIDYNSGKVLAEQNADVRRDPASLTKMMTSYVIGQAMKAGKFKETDLVTIGNDAWATGNPVFKGSSLMFLKPGMQVPVSQLIRGINLQSGNDACVAMADFAAGSQDAFVGLMNSYVNALGLKNTHFQTVHGLDADGQYSSARDMALIGQALIRDVPNEYSIYKEKEFTFNGIRQLNRNGLLWDNSLNVDGIKTGHTDKAGYNLVASATEGQMRLISAVMGGRTFKGREAESKKLLTWGFRFFETVNPLKVGKEFASEPVWFGDSDRASLGVDKDVYLTIPRGRMKDLKASYVLNSSELHAPLQKNQVVGTINFQLDGKTIEQRPLVVLQEIPEGNFFGKIIDYIKLMFHHWFG
